Experimental data as given in the supplement of paper PMC10849652.
The other results are listed elsewhere or left out.

Protein sequences, listed by entry. Tags and fused reporters are not part of them. Lines headed by an entry give the natural chain unless they say otherwise; changes in a name come on top.
UniProt O95470: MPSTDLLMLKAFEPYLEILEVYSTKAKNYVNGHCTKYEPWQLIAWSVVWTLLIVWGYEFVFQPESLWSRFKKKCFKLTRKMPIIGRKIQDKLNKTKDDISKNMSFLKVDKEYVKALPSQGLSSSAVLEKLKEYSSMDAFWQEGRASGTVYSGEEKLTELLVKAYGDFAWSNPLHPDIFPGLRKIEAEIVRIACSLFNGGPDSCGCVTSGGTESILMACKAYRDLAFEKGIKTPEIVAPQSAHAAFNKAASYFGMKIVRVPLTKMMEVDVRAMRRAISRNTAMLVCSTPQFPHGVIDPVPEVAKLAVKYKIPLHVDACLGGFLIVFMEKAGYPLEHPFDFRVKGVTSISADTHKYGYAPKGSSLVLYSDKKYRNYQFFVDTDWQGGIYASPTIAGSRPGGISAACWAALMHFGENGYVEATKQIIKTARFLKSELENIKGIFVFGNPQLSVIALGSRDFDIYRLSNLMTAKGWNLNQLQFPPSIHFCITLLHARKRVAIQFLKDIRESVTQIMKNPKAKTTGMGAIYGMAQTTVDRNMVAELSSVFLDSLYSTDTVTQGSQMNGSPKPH
UniProt Q8NBJ9: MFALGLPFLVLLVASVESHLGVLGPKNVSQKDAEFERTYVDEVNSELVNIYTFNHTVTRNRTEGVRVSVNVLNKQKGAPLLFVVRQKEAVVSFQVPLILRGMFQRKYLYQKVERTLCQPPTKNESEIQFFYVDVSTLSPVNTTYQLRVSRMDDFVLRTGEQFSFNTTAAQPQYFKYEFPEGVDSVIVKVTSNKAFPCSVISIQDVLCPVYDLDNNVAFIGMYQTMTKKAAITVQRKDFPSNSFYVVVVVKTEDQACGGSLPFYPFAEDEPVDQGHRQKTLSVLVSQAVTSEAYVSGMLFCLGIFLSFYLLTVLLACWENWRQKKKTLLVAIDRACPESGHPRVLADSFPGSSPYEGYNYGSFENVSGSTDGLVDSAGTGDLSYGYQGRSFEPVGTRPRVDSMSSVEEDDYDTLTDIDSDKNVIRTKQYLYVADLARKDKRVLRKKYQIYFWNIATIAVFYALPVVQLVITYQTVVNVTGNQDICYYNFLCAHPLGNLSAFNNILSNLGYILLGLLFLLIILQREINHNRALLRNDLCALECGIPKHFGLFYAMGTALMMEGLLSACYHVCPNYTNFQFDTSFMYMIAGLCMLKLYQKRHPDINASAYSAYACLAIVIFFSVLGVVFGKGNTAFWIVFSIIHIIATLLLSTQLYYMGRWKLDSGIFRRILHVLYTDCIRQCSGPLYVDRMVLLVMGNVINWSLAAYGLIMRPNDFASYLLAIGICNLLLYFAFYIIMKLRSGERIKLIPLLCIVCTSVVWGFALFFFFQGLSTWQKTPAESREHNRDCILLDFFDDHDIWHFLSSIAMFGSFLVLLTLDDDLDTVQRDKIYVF
UniProt Q8N6T7, whole entry, looked up: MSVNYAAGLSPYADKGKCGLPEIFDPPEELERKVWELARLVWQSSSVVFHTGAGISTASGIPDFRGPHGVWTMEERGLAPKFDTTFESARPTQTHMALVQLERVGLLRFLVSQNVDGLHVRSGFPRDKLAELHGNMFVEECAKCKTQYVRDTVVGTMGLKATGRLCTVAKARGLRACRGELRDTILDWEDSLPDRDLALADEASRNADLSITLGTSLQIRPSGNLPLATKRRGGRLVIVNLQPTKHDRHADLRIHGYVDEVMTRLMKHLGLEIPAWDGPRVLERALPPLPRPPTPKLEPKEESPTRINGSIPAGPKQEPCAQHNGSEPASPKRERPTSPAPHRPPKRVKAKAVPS
UniProt P63208, whole entry, looked up: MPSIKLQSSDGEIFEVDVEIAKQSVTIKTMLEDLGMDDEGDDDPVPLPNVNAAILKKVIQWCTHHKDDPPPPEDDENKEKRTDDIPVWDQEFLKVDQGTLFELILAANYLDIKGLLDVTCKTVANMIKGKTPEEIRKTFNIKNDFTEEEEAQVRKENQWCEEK
UniProt Q9UHW9: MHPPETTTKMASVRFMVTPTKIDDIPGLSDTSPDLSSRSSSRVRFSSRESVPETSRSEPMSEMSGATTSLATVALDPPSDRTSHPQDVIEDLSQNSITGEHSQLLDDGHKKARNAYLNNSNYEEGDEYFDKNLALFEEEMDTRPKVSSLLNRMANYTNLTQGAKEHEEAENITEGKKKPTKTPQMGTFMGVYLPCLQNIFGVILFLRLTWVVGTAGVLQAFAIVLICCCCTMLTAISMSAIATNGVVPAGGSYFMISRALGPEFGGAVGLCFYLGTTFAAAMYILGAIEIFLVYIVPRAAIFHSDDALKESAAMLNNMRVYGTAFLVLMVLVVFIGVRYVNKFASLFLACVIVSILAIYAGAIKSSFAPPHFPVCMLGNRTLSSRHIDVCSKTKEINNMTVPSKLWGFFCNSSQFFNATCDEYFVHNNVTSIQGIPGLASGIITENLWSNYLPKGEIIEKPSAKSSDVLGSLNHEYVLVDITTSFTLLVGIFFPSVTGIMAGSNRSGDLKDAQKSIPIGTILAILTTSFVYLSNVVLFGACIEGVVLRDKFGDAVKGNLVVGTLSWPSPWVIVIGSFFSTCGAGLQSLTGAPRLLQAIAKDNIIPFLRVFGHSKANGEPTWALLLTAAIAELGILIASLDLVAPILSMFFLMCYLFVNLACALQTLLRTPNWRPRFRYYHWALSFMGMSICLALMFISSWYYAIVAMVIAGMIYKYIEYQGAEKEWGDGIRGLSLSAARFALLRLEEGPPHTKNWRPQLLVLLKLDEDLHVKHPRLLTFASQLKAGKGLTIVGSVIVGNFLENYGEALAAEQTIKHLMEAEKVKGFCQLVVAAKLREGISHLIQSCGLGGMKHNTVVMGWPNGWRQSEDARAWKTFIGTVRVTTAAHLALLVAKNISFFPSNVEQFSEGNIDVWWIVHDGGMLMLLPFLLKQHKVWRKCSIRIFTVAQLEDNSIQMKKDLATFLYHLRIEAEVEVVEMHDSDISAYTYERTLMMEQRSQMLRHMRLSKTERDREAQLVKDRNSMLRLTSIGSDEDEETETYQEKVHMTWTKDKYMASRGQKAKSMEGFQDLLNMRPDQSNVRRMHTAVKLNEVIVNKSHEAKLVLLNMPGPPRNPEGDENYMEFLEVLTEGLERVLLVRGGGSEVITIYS
UniProt Q96ES7: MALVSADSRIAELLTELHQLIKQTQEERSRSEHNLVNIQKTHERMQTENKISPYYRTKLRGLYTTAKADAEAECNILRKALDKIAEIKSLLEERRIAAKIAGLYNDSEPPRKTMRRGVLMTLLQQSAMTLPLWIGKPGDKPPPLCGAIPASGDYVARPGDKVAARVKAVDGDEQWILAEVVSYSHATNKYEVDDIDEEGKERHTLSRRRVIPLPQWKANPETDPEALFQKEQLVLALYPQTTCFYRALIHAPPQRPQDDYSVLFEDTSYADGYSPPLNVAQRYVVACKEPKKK
UniProt Q86XK3: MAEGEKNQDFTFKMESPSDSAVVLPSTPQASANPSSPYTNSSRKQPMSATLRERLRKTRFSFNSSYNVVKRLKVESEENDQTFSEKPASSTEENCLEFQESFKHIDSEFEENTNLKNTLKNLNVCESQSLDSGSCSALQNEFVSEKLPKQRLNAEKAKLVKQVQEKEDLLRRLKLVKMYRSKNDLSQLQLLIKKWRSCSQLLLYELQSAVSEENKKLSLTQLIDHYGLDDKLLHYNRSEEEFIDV
UniProt A0MZ66, whole entry, looked up: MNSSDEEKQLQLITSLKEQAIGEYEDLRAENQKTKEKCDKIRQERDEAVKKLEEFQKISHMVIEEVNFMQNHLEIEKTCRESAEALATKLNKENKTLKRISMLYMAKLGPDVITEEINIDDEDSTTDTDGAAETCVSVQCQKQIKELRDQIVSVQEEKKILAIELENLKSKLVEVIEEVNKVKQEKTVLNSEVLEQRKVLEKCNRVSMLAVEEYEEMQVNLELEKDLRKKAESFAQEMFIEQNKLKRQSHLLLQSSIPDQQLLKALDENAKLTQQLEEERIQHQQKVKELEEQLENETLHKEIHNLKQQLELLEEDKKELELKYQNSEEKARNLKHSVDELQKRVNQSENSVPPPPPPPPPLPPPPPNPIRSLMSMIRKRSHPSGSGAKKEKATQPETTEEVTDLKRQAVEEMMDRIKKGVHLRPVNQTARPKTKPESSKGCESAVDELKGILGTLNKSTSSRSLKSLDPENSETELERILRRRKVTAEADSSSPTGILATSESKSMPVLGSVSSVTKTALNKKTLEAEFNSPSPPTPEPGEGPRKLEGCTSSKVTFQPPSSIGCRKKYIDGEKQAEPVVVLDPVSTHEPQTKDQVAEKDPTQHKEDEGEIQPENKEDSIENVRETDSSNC
UniProt Q96BD8: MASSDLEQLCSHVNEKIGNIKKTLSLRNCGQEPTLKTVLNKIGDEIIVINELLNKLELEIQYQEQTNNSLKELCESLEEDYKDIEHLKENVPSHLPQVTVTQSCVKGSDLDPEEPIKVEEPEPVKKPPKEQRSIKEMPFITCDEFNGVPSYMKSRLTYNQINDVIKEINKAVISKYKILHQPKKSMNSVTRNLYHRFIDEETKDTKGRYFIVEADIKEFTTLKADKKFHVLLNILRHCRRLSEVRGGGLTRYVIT
UniProt Q12874: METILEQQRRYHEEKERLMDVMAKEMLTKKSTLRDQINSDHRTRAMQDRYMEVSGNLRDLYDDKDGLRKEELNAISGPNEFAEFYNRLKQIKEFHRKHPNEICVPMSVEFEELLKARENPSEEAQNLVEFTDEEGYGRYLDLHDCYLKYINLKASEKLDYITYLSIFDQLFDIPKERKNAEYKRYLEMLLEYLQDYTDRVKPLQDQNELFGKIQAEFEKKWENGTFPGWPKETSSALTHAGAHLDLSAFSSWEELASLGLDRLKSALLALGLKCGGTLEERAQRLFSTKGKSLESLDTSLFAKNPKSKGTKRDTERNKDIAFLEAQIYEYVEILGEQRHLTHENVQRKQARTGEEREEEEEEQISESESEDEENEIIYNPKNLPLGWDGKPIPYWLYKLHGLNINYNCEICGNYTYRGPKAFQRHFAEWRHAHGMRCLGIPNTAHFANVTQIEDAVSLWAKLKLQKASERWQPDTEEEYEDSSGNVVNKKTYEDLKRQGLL
UniProt Q9UJC5: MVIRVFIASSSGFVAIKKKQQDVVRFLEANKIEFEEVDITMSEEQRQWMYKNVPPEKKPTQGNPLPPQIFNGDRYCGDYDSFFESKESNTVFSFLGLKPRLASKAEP
UniProt Q9NRX5: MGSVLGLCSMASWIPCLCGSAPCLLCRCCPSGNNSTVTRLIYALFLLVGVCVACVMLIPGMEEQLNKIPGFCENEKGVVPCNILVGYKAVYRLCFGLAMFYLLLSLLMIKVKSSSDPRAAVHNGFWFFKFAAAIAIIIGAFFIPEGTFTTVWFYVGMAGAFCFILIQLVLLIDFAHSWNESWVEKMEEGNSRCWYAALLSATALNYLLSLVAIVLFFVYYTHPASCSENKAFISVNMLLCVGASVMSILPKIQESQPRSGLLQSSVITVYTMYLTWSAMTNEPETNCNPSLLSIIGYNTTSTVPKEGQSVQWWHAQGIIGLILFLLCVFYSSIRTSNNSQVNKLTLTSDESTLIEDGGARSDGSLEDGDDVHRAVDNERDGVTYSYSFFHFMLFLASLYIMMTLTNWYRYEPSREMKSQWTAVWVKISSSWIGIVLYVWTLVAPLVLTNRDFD
UniProt Q14493, whole entry, looked up: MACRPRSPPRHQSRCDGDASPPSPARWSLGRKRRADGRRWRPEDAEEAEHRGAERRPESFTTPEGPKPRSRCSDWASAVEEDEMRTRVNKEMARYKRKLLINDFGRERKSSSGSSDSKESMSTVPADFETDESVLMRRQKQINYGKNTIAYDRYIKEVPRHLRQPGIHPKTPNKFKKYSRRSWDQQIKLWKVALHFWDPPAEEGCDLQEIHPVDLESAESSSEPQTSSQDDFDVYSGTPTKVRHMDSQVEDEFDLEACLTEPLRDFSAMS
UniProt Q9H9B4: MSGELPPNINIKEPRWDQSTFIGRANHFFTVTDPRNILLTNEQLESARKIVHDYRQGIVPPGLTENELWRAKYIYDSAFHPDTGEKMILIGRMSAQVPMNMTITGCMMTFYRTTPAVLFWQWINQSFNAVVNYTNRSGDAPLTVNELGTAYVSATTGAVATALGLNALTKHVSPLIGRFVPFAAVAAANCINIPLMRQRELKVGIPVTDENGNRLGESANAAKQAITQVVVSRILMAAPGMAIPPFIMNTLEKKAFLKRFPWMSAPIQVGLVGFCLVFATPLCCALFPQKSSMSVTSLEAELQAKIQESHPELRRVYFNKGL
UniProt P30740: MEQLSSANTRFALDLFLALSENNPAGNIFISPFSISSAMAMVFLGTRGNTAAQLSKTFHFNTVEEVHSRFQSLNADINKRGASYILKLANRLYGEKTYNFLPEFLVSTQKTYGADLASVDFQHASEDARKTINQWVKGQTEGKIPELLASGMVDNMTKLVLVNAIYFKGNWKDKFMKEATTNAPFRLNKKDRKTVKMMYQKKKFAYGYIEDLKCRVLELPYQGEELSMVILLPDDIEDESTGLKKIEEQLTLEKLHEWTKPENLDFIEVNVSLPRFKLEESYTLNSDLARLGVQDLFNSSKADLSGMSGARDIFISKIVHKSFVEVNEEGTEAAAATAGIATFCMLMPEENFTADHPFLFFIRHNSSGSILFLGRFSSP

Tests used:
Assay in all cases: log2 fold change, soluble protein after heating vs DMSO (PISA); higher = thermal stabilisation; K562 lysate, 10 uM; active = over 0.2 and 3.5 SD of the protein, either way, in both replicates (recomputed)
vemurafenib = compound: CCCS(=O)(=O)Nc1ccc(F)c(C(=O)c2c[nH]c3ncc(-c4ccc(Cl)cc4)cc23)c1F [vemurafenib]
In short: (§1)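 The values are log-two fold changes in thermal stability compared with solvent controls and come from duplicates. They were obtained by TMTpro 16plex LC-MS/MS, with channel sums equalised, on the supernatant after 21,000xg for 90 min. That supernatant came from crude K562 extract at 1 mg/mL protein treated with 10 μM compound for 30 min, heated for 3 min across 48°C-58°C, pooled and brought to 0.5% NP-40 at 4°C.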

[1] = compound: CCCS(=O)(=O)Nc1ccc(F)c(C(=O)c2c[nH]c3ncc(Cl)cc23)c1F
In short: as §1

barasertib = compound: CCN(CCCOc1ccc2c(Nc3cc(CC(=O)Nc4cccc(F)c4)[nH]n3)ncnc2c1)CCOP(=O)(O)O [barasertib]
In short: as §1

[2] = compound: CC[C@@H]1C(=O)N(C)c2cnc(Nc3ccc(C(=O)NC4CCN(C)CC4)cc3OC)nc2N1C1CCCC1
In short: as §1

volasertib = compound: CC[C@@H]1C(=O)N(C)c2cnc(Nc3ccc(C(=O)N[C@H]4CC[C@H](N5CCN(CC6CC6)CC5)CC4)cc3OC)nc2N1C(C)C [volasertib]
In short: as §1

[3] = compound: CCn1c(C(=O)N(C2CC2)C2CC2)cc2c3c(ncn3C)c(Nc3cc(C)n(C)n3)nc21
In short: as §1

[4] = compound: CCn1cc(-c2ccnc3[nH]c(-c4cccc(CN(C)C)c4)cc23)c(-c2ccc(NC(=O)N(C)C)cc2)n1
In short: as §1

[5] = compound: CN1CCC(CNc2ccc3ncc(-c4cccc(OC(F)(F)F)c4)n3n2)CC1
In short: as §1

saracatinib = compound: CN1CCN(CCOc2cc(OC3CCOCC3)c3c(Nc4c(Cl)ccc5c4OCO5)ncnc3c2)CC1 [saracatinib]
In short: as §1

sotrastaurin = compound: CN1CCN(c2nc(C3=C(c4c[nH]c5ccccc45)C(=O)NC3=O)c3ccccc3n2)CC1 [sotrastaurin]
In short: as §1

alvocidib = compound: CN1CC[C@H](c2c(O)cc(O)c3c(=O)cc(-c4ccccc4Cl)oc23)[C@H](O)C1 [alvocidib]
In short: as §1

Tubastatin A = compound: CN1CCc2c(c3ccccc3n2Cc2ccc(C(=O)NO)cc2)C1 [Tubastatin A]
In short: as §1

[6] = compound: CNC(=O)C1=CC=CC=C1NC2=NC(=NC=C2Cl)NC3=C(C=C(C=C3)N4CCOCC4)OC
In short: as §1

defactinib = compound: CNC(=O)c1ccc(Nc2ncc(C(F)(F)F)c(NCc3nccnc3N(C)S(C)(=O)=O)n2)cc1 [defactinib]
In short: as §1

[7] = compound: CNc1nc(-c2ccc3c(N)n[nH]c3c2)cc(N2C[C@@H](C(=O)NC3CCCCC3)CC[C@H]2C)n1
In short: as §1

encorafenib = compound: COC(=O)N[C@@H](C)CNc1nccc(-c2cn(C(C)C)nc2-c2cc(Cl)cc(NS(C)(=O)=O)c2F)n1 [encorafenib]
In short: as §1

[8] = compound: COC(=O)[C@H](CCSC)NC(=O)C1=C(C=C(C=C1)NC[C@H](CS)N)C2=CC=CC=C2
In short: as §1

alisertib = compound: COc1cc(Nc2ncc3c(n2)-c2ccc(Cl)cc2C(c2c(F)cccc2OC)=NC3)ccc1C(=O)O [alisertib]
In short: as §1

[9] = compound: COc1cc2nc(-c3cc(F)ccc3O)nc(N[C@@H]3CNC[C@H]3C(C)(C)O)c2cc1OC
In short: as §1

gefitinib = compound: COc1cc2ncnc(Nc3ccc(F)c(Cl)c3)c2cc1OCCCN1CCOCC1 [gefitinib]
In short: as §1

| Target | log2 fold change (vemurafenib) | log2 fold change [1] | log2 fold change (barasertib) | log2 fold change [2] | log2 fold change (volasertib) | log2 fold change [3] | log2 fold change [4] | log2 fold change [5] | log2 fold change (saracatinib) | log2 fold change (sotrastaurin) | log2 fold change (alvocidib) | log2 fold change (Tubastatin A) | log2 fold change [6] | log2 fold change (defactinib) | log2 fold change [7] | log2 fold change (encorafenib) | log2 fold change [8] | log2 fold change (alisertib) | log2 fold change [9] | log2 fold change (gefitinib) |
| --- | --- | --- | --- | --- | --- | --- | --- | --- | --- | --- | --- | --- | --- | --- | --- | --- | --- | --- | --- | --- |
| SGPL1 (UniProt O95470) | inactive: -0.096 | inactive: 0.042 | inactive: 0.021 | inactive: -0.028 | inactive: -0.032 | inactive: -0.031 | inactive: 0.046 | inactive: 0.014 | inactive: 0.067 | inactive: -0.022 | inactive: -0.012 | inactive: 0.01 | inactive: 0.009 | inactive: 0.035 | inactive: 0.09 | inactive: 0.025 | inactive: 0.062 | inactive: -0.078 | inactive: -0.155 | inactive: -0.027 |
| SIDT2 isoform 2 (UniProt Q8NBJ9) | inactive: 0.048 | inactive: 0.012 | inactive: 0.032 | inactive: 0.08 | inactive: 0.02 | inactive: -0.057 | inactive: 0.013 | inactive: -0.018 | inactive: 0.006 | inactive: -0.01 | inactive: 0 | inactive: 0.058 | inactive: 0.046 | inactive: -0.082 | inactive: -0.008 | inactive: 0.027 | inactive: -0.059 | inactive: -0.303 | inactive: -0.019 | inactive: -0.234 |
| SIRT6 (UniProt Q8N6T7) | inactive: 0.048 | inactive: 0.129 | inactive: -0.027 | inactive: -0.111 | inactive: -0.003 | inactive: -0.034 | inactive: -0.042 | inactive: -0.013 | inactive: -0.086 | inactive: 0.048 | inactive: 0.057 | inactive: 0.135 | inactive: 0.029 | inactive: 0.045 | inactive: 0.012 | inactive: -0.002 | inactive: 0.149 | inactive: -0.071 | inactive: 0.031 | inactive: 0.071 |
| SKP1 (UniProt P63208) | inactive: -0.037 | inactive: -0.016 | inactive: 0.077 | inactive: 0.068 | inactive: 0.037 | inactive: -0.032 | inactive: 0.033 | inactive: 0.002 | inactive: -0.036 | inactive: 0.033 | inactive: 0.009 | inactive: 0.047 | inactive: -0.005 | inactive: 0.008 | inactive: -0.009 | inactive: -0.007 | inactive: -0.15 | inactive: 0.005 | inactive: 0.008 | inactive: 0.01 |
| SLC12A6 (UniProt Q9UHW9) | inactive: 0.015 | inactive: 0.021 | inactive: 0.002 | inactive: 0.037 | inactive: 0.002 | inactive: 0.008 | inactive: -0.06 | inactive: 0.012 | inactive: -0.003 | inactive: -0.01 | inactive: -0.03 | inactive: 0.03 | inactive: 0.065 | inactive: 0.006 | inactive: -0.038 | inactive: 0.034 | inactive: -0.021 | inactive: -0.006 | inactive: 0.004 | inactive: 0.093 |
| SGF29 (UniProt Q96ES7) | inactive: -0.127 | inactive: -0.021 | inactive: -0.05 | inactive: 0.132 | inactive: -0.079 | inactive: -0.01 | inactive: -0.098 | inactive: 0.016 | inactive: -0.004 | inactive: 0.014 | inactive: -0.04 | inactive: -0.034 | inactive: 0.061 | inactive: 0.074 | inactive: 0.039 | inactive: 0.117 | inactive: 0.037 | inactive: 0.006 | inactive: -0.039 | inactive: 0.015 |
| SFR1 isoform 2 (UniProt Q86XK3) | inactive: -0.031 | inactive: -0.037 | inactive: 0.024 | inactive: 0.028 | inactive: 0.022 | inactive: 0.013 | inactive: -0.087 | inactive: -0.119 | inactive: -0.04 | inactive: 0.085 | inactive: -0.014 | inactive: -0.003 | inactive: -0.009 | inactive: -0.155 | inactive: -0.005 | inactive: 0.014 | inactive: -0.007 | inactive: 0.004 | inactive: -0.007 | inactive: -0.03 |
| SLAIN2 (UniProt Q9P270) | inactive: 0.01 | inactive: 0.002 | inactive: 0.006 | inactive: 0.095 | inactive: 0.01 | inactive: -0.026 | inactive: -0.006 | inactive: 0.03 | inactive: -0.01 | inactive: -0.012 | inactive: -0.051 | inactive: -0.013 | inactive: 0.06 | inactive: 0.003 | inactive: 0.025 | inactive: 0.041 | inactive: -0.128 | inactive: 0.043 | inactive: -0.001 | inactive: -0.008 |
| SHTN1 (UniProt A0MZ66) | inactive: 0.022 | inactive: 0.009 | inactive: 0.002 | inactive: 0.043 | inactive: 0.015 | inactive: -0.021 | inactive: -0.019 | inactive: 0.023 | inactive: 0.015 | inactive: -0.002 | inactive: -0.022 | inactive: 0.039 | inactive: 0.001 | inactive: -0.008 | inactive: 0.028 | inactive: 0.006 | inactive: -0.011 | inactive: -0.017 | inactive: 0.012 | inactive: -0.016 |
| SKA1 (UniProt Q96BD8) | inactive: -0.004 | inactive: -0.01 | inactive: -0.017 | active: -0.234 | inactive: -0.121 | inactive: 0.003 | inactive: -0.167 | inactive: 0.021 | inactive: 0.071 | inactive: 0.066 | inactive: -0.046 | inactive: -0.064 | inactive: 0.001 | inactive: 0.015 | inactive: -0.008 | inactive: 0.129 | inactive: -0.055 | inactive: -0.017 | inactive: 0.017 | inactive: -0.006 |
| SF3A3 (UniProt Q12874) | inactive: 0.017 | inactive: -0.007 | inactive: -0.061 | inactive: -0.064 | inactive: -0.032 | inactive: 0.01 | inactive: 0.094 | inactive: -0.05 | inactive: 0.012 | inactive: 0.007 | inactive: 0.042 | inactive: -0.154 | inactive: -0.023 | inactive: -0.024 | inactive: -0.118 | inactive: 0.005 | inactive: 0.098 | inactive: 0.014 | inactive: -0.012 | inactive: 0.017 |
| SH3BGRL2 (UniProt Q9UJC5) | inactive: -0.013 | inactive: 0.021 | inactive: 0.022 | inactive: 0.076 | inactive: 0.006 | inactive: -0.007 | active: 0.387 | inactive: -0.052 | inactive: 0.014 | inactive: 0.002 | inactive: 0.067 | inactive: 0.031 | inactive: 0.05 | inactive: 0.039 | inactive: 0.061 | inactive: -0.066 | inactive: 0.027 | inactive: -0.013 | inactive: -0.001 | inactive: -0.001 |
| SERINC1 (UniProt Q9NRX5) | inactive: -0.075 | inactive: 0.07 | inactive: -0.042 | inactive: 0.052 | inactive: 0.073 | inactive: -0.045 | inactive: -0.287 | inactive: 0.099 | inactive: 0.026 | inactive: -0.026 | inactive: -0.144 | inactive: -0.032 | inactive: 0.009 | inactive: 0.168 | inactive: -0.015 | inactive: 0.064 | inactive: -0.023 | inactive: 0.086 | inactive: 0.021 | inactive: 0.047 |
| SLBP (UniProt Q14493) | inactive: -0.001 | inactive: 0.004 | inactive: -0.009 | inactive: -0.083 | inactive: 0.014 | inactive: 0.072 | inactive: -0.006 | inactive: 0.007 | inactive: 0.022 | inactive: 0.114 | inactive: 0.055 | inactive: -0.095 | inactive: 0.033 | inactive: -0.003 | inactive: -0.191 | inactive: 0.019 | inactive: 0 | inactive: 0.028 | inactive: -0.055 | inactive: -0.019 |
| SFXN1 (UniProt Q9H9B4) | inactive: -0.047 | inactive: -0.023 | inactive: 0.051 | inactive: 0.001 | inactive: 0.021 | inactive: 0.034 | inactive: -0.035 | inactive: -0.115 | inactive: 0.005 | inactive: -0.001 | inactive: 0 | inactive: -0.001 | inactive: -0.006 | inactive: 0.002 | inactive: -0.021 | inactive: 0.01 | inactive: -0.01 | inactive: -0.005 | inactive: -0.085 | inactive: 0.004 |
| SERPINB1 (UniProt P30740) | inactive: -0.004 | inactive: 0.004 | inactive: -0.02 | inactive: -0.013 | inactive: 0.005 | inactive: -0.004 | inactive: -0.053 | inactive: 0.027 | inactive: -0.02 | inactive: 0.003 | inactive: 0.003 | inactive: 0.016 | inactive: -0.014 | inactive: -0.015 | inactive: 0.014 | inactive: -0.027 | inactive: 0.016 | inactive: 0.006 | inactive: -0.01 | inactive: -0.026 |

Three entries from above, as tab-separated lines.
Target	log2 fold change (vemurafenib)	log2 fold change [1]	log2 fold change (barasertib)	log2 fold change [2]	log2 fold change (volasertib)	log2 fold change [3]	log2 fold change [4]	log2 fold change [5]	log2 fold change (saracatinib)	log2 fold change (sotrastaurin)	log2 fold change (alvocidib)	log2 fold change (Tubastatin A)	log2 fold change [6]	log2 fold change (defactinib)	log2 fold change [7]	log2 fold change (encorafenib)	log2 fold change [8]	log2 fold change (alisertib)	log2 fold change [9]	log2 fold change (gefitinib)
SHTN1 (UniProt A0MZ66)	inactive: 0.022	inactive: 0.009	inactive: 0.002	inactive: 0.043	inactive: 0.015	inactive: -0.021	inactive: -0.019	inactive: 0.023	inactive: 0.015	inactive: -0.002	inactive: -0.022	inactive: 0.039	inactive: 0.001	inactive: -0.008	inactive: 0.028	inactive: 0.006	inactive: -0.011	inactive: -0.017	inactive: 0.012	inactive: -0.016
SKA1 (UniProt Q96BD8)	inactive: -0.004	inactive: -0.01	inactive: -0.017	active: -0.234	inactive: -0.121	inactive: 0.003	inactive: -0.167	inactive: 0.021	inactive: 0.071	inactive: 0.066	inactive: -0.046	inactive: -0.064	inactive: 0.001	inactive: 0.015	inactive: -0.008	inactive: 0.129	inactive: -0.055	inactive: -0.017	inactive: 0.017	inactive: -0.006
SF3A3 (UniProt Q12874)	inactive: 0.017	inactive: -0.007	inactive: -0.061	inactive: -0.064	inactive: -0.032	inactive: 0.01	inactive: 0.094	inactive: -0.05	inactive: 0.012	inactive: 0.007	inactive: 0.042	inactive: -0.154	inactive: -0.023	inactive: -0.024	inactive: -0.118	inactive: 0.005	inactive: 0.098	inactive: 0.014	inactive: -0.012	inactive: 0.017
